The list is a part of this screen's results and no random one: it is rich in T/C values a quarter to a half above the control, in often repeated tests (any T/C) and in doses without a T/C. Further doses and runs are listed elsewhere. T/C gives the treated animals as a percentage of the vehicle group. Some entries give survivors of the animals treated and no T/C: the source holds a T/C of zero for them, seemingly a mark for toxic or unscored doses. Some survivor counts are full or nearly so, which does not show that the dose was tolerated: survival well below the control is almost never listed, so the zero probably covers shortened survival too. Survivors were counted at the toxicity check, usually on the fifth day, unless a day is given; later deaths do not show. Schedule codes are those of the source, read here as Q, the interval in days (D) or hours (H), X, the number of doses. For survival time, this PubChem deposit counts one and a half times the control or more as active, and values a quarter to a half above the control carry no call in these data; other NCI protocols may use other cut-offs. Some entries hold several experiments; their values stand side by side, smallest first.
Test system: P388 leukemia ip, CD2F1 mice, survival T/C
Experiment: NCI In Vivo Anticancer Drug Screen. Data for tumor model P388 Leukemia (intraperitoneal) in CD2F1 (CDF1) mice
Details: T/C endpoint: median survival time, higher T/C = longer survival
[1] = dose: 200.0 mg/kg/injection, schedule: Q01DX009 (ip), vehicle: Klucel (hydroxypropylcellulose) (HPC)
[2] = dose: 200.0 mg/kg/injection, schedule: Q01DX005 (ip), vehicle: saline
[3] = dose: 200.0 mg/kg/injection, schedule: Q01DX009 (ip), vehicle: saline with Tween-80
[4] = dose: 120.0 mg/kg/injection, schedule: Q01DX005 (ip), vehicle: saline with Tween-80
[5] = dose: 240.0 mg/kg/injection, schedule: Q01DX005 (ip), vehicle: saline with Tween-80
[6] = dose: 200.0 mg/kg/injection, schedule: Q01DX009 (ip), vehicle: saline
[7] = dose: 50.0 mg/kg/injection, schedule: Q01DX009 (ip), vehicle: Klucel (hydroxypropylcellulose) (HPC)
[8] = dose: 100.0 mg/kg/injection, schedule: Q01DX009 (ip), vehicle: Klucel (hydroxypropylcellulose) (HPC)
[9] = dose: 100.0 mg/kg/injection, schedule: Q01DX005 (ip), vehicle: saline with Tween-80
[10] = dose: 200.0 mg/kg/injection, schedule: Q01DX005 (ip), vehicle: saline with Tween-80
[11] = dose: 400.0 mg/kg/injection, schedule: Q04DX003 (ip), vehicle: saline with Tween-80

**Q.** `COc1cc2c(cc1OC)C(C#N)N(C(=O)c1ccccc1)C=C2` (configuration not stated) was tested. Which survivor count (dose: 1.56 mg/kg/injection, schedule: Q01DX009 (ip), vehicle: water) did it give?
**A.** The survivor count was 6 of 6.

**Q.** And the survivor count (dose: 3.13 mg/kg/injection, schedule: Q01DX009 (ip), vehicle: water)?
**A.** The survivor count was 6 of 6.

**Q.** What about the survivor count (dose: 6.25 mg/kg/injection, schedule: Q01DX009 (ip), vehicle: water) of the same compound?
**A.** Its survivor count is 6 of 6.

**Q.** What about the survivor count (dose: 12.5 mg/kg/injection, schedule: Q01DX009 (ip), vehicle: water) of the same compound?
**A.** The survivor count was 6 of 6.

**Q.** What about the survivor count (dose: 25.0 mg/kg/injection, schedule: Q01DX009 (ip), vehicle: water) of the same compound?
**A.** Its survivor count is 6 of 6.

**Q.** What about the survivor count (dose: 50.0 mg/kg/injection, schedule: Q01DX009 (ip), vehicle: water) of the same compound?
**A.** Its survivor count is 6 of 6.

**Q.** What about the survivor count (dose: 100.0 mg/kg/injection, schedule: Q01DX009 (ip), vehicle: water) of the same compound?
**A.** Its survivor count is 6 of 6.

**Q.** And the survivor count (dose: 200.0 mg/kg/injection, schedule: Q01DX009 (ip), vehicle: water)?
**A.** The survivor count was 6 of 6.

**Q.** What about the survivor count (dose: 400.0 mg/kg/injection, schedule: Q01DX009 (ip), vehicle: water) of the same compound?
**A.** The survivor count was 6 of 6.

**Q.** How did the survivor count [1] turn out when `O=C1/C(=C/C=C/c2ccccc2)C(=S)SN1Cc1ccco1` was run?
**A.** Its survivor count is 6 of 6.

**Q.** For `CC[N+](C)(CC)C1C(S(=O)(=O)c2ccccc2)CC1(C)C` (configuration not stated), which survivor count [2] is on record?
**A.** Its survivor count is 0 of 6.

**Q.** Which survivor count [3] does the source give for `O=C([Se][Se]C(=O)c1ccc(Cl)cc1)c1ccc(Cl)cc1` here?
**A.** The survivor count was 0 of 6.

**Q.** `CCOC(=O)C(CNc1ccc(O)cc1)NC(=O)c1ccccc1` (configuration not stated) was tested. Which survivor count (dose: 50.0 mg/kg/injection, schedule: Q01DX009 (ip), vehicle: saline with Tween-80) did it give?
**A.** Its survivor count is 6 of 6.

**Q.** For `C1=C(c2ccccc2)C(c2cccc(OCCN3CCCCC3)c2)Oc2ccccc21` (configuration not stated), which survivor count (dose: 60.0 mg/kg/injection, schedule: Q01DX005 (ip), vehicle: saline with Tween-80) is on record?
**A.** Its survivor count is 0 of 6.

**Q.** And the survivor count [4]?
**A.** Its survivor count is 0 of 6.

**Q.** What about the survivor count [5] of the same compound?
**A.** The survivor count was 0 of 6.

**Q.** Which survivor count [6] does the source give for `CN=C(C)NC1CCCCC1` here?
**A.** The survivor count was 3 of 6.

**Q.** Which results are given for `CCn1c2ccccc2c2cc(N/C=C/C3=[N+](C)c4ccccc4C3(C)C)ccc21`?
**A.** survivor count (dose: 12.5 mg/kg/injection, schedule: Q01DX009 (ip), vehicle: Klucel (hydroxypropylcellulose) (HPC)): 6 of 6; survivor count [7]: 1 of 6; survivor count [8]: 0 of 6; survivor count [1]: 0 of 6

**Q.** How did the survivor count (dose: 100.0 mg/kg/injection, schedule: Q01DX009 (ip), vehicle: saline with Tween-80) turn out when `NNC(=O)c1ccccc1` was run?
**A.** Its survivor count is 4 of 6.

**Q.** What about the survivor count (dose: 200.0 mg/kg/injection, schedule: Q04DX003 (ip), vehicle: saline with Tween-80) of the same compound?
**A.** Its survivor count is 2 of 6.

**Q.** Which T/C (dose: 2.66 mg/kg/injection, schedule: Q01DX009 (ip), vehicle: water) does the source give for `COc1cc2c(c(OC)c1OC)-c1ccc(SC)c(=O)cc1[C@@H](NC(=O)NCCCl)CC2` here?
**A.** The T/C was 137 % of control.

**Q.** What about the T/C (dose: 2.7 mg/kg/injection, schedule: Q01DX009 (ip), vehicle: water) of the same compound?
**A.** Its T/C is 126 % of control.

**Q.** And the T/C (dose: 3.0 mg/kg/injection, schedule: Q01DX009 (ip), vehicle: water)?
**A.** Its T/C is 126 % of control.

**Q.** And the T/C (dose: 4.0 mg/kg/injection, schedule: Q01DX009 (ip), vehicle: water)?
**A.** The T/C was 128 and 138 % of control.

**Q.** What about the T/C (dose: 6.0 mg/kg/injection, schedule: Q01DX009 (ip), vehicle: water) of the same compound?
**A.** Its T/C is 126 and 141 % of control.

**Q.** And the T/C (dose: 9.0 mg/kg/injection, schedule: Q01DX009 (ip), vehicle: water)?
**A.** The T/C was 142 and 145 % of control.

**Q.** And the survivor count (dose: 24.0 mg/kg/injection, schedule: Q01DX009 (ip), vehicle: water)?
**A.** Its survivor count is 6 of 6.

**Q.** How did the survivor count (dose: 25.0 mg/kg/injection, schedule: Q01DX009 (ip), vehicle: saline with Tween-80) turn out when `NC(CSP(=O)(O)O)=NCC12CC3CC(CC(C3)C1)C2` was run?
**A.** Its survivor count is 0 of 6.

**Q.** Which survivor count (dose: 25.0 mg/kg/injection, schedule: Q01DX009 (ip), vehicle: saline) does the source give for `CC(C)(C#N)NNC(N)=S` here?
**A.** Its survivor count is 1 of 6.

**Q.** And the survivor count (dose: 50.0 mg/kg/injection, schedule: Q01DX009 (ip), vehicle: saline)?
**A.** The survivor count was 0 of 6.

**Q.** And the survivor count (dose: 100.0 mg/kg/injection, schedule: Q01DX009 (ip), vehicle: saline)?
**A.** The survivor count was 0 of 6.

**Q.** And the survivor count [6]?
**A.** Its survivor count is 0 of 6.

**Q.** What about the survivor count (dose: 400.0 mg/kg/injection, schedule: Q04DX003 (ip), vehicle: saline) of the same compound?
**A.** Its survivor count is 0 of 6.

**Q.** `CC(C)(C)OC(=O)NCC(=O)ON1C(=O)CCC1=O` was tested. Which survivor count [3] did it give?
**A.** The survivor count was 6 of 6.

**Q.** Which T/C (dose: 50.0 mg/kg/injection, schedule: Q01DX005 (ip), vehicle: saline with Tween-80) does the source give for `O=C1Nc2ccccc2N=NN1CCCl` here?
**A.** Its T/C is 125 % of control.

**Q.** And the T/C [9]?
**A.** Its T/C is 135 % of control.

**Q.** What about the survivor count [10] of the same compound?
**A.** Its survivor count is 5 of 6.

**Q.** How did the survivor count [11] turn out when `Clc1ccc(CNc2ncnc3[nH]ncc23)c(Cl)c1` was run?
**A.** The survivor count was 6 of 6.

**Q.** Which survivor count [7] does the source give for `Clc1ccc(N=Cc2ccc(C=Nc3ccc(Cl)cc3)cc2)cc1` here?
**A.** The survivor count was 6 of 6.

**Q.** What about the survivor count [8] of the same compound?
**A.** The survivor count was 6 of 6.

**Q.** What about the survivor count [1] of the same compound?
**A.** Its survivor count is 6 of 6.

**Q.** What does the source list for `C1CCNCC1.CC(=O)[CH-]C(=O)c1ccccc1.CC(=O)[CH-]C(=O)c1ccccc1.CC(=O)[CH-]C(=O)c1ccccc1.CC(=O)[CH-]C(=O)c1ccccc1.[Eu+3]`?
**A.** survivor count [7]: 6 of 6; survivor count [1]: 6 of 6

**Q.** With `CC(=O)OC1OC(CF)C(OC(C)=O)C1OC(C)=O` (configuration not stated) as the compound, how does the survivor count [11] read?
**A.** The survivor count was 3 of 6.

**Q.** Which survivor count (dose: 12.5 mg/kg/injection, schedule: Q01DX005 (ip), vehicle: Klucel (hydroxypropylcellulose) (HPC)) does the source give for `Cc1cccc2c(-c3ccccc3)c3cccc[n+]3cc12` here?
**A.** Its survivor count is 0 of 5.

**Q.** What about the survivor count (dose: 25.0 mg/kg/injection, schedule: Q01DX005 (ip), vehicle: Klucel (hydroxypropylcellulose) (HPC)) of the same compound?
**A.** Its survivor count is 0 of 5.

**Q.** With `N/C(=N\OC1(c2ccccc2)OC(=O)C(=O)/C1=C(/O)c1ccccc1)c1ccccc1` (configuration not stated) as the compound, how does the survivor count [5] read?
**A.** Its survivor count is 3 of 6.

**Q.** With `O=C1c2ccccc2-n2c1nc1ccc([N+](=O)[O-])cc1c2=O` as the compound, how does the survivor count (dose: 100.0 mg/kg/injection, schedule: Q04DX002 (ip), vehicle: Klucel (hydroxypropylcellulose) (HPC)) read?
**A.** Its survivor count is 1 of 6.

**Q.** And the survivor count (dose: 200.0 mg/kg/injection, schedule: Q04DX002 (ip), vehicle: Klucel (hydroxypropylcellulose) (HPC))?
**A.** Its survivor count is 1 of 6.

**Q.** What about the survivor count (dose: 400.0 mg/kg/injection, schedule: Q01DX005 (ip), vehicle: Klucel (hydroxypropylcellulose) (HPC)) of the same compound?
**A.** The survivor count was 0 of 6.

**Q.** With `CCCCCN(CCCCC)CCCNc1c2c(nc3ccc(Cl)cc13)CCCC2` as the compound, how does the survivor count (dose: 100.0 mg/kg/injection, schedule: Q01DX005 (ip), vehicle: saline) read?
**A.** The survivor count was 0 of 5.

**Q.** And the survivor count [2]?
**A.** Its survivor count is 0 of 5.

**Q.** With `C#CC1=CC(=O)C(OC)=CC1=O` as the compound, how does the survivor count (dose: 30.0 mg/kg/injection, schedule: Q01DX005 (ip), vehicle: Klucel (hydroxypropylcellulose) (HPC)) read?
**A.** The survivor count was 2 of 6.

**Q.** And the survivor count (dose: 60.0 mg/kg/injection, schedule: Q01DX005 (ip), vehicle: Klucel (hydroxypropylcellulose) (HPC))?
**A.** The survivor count was 0 of 6.

**Q.** And the survivor count (dose: 120.0 mg/kg/injection, schedule: Q01DX005 (ip), vehicle: Klucel (hydroxypropylcellulose) (HPC))?
**A.** Its survivor count is 0 of 6.

**Q.** And the survivor count (dose: 240.0 mg/kg/injection, schedule: Q01DX005 (ip), vehicle: Klucel (hydroxypropylcellulose) (HPC))?
**A.** The survivor count was 0 of 6.

**Q.** For `Oc1c(Cl)c2nc3ccccc3nc2c2ccccc12`, which survivor count [4] is on record?
**A.** The survivor count was 6 of 6.

**Q.** What about the survivor count [5] of the same compound?
**A.** Its survivor count is 0 of 6.

**Q.** How did the survivor count [11] turn out when `COc1ccc(N=Nc2c(O)n(-c3ccc(Br)cc3)c(=S)n(-c3ccc(OC)cc3)c2=O)cc1` was run?
**A.** The survivor count was 6 of 6.

**Q.** `CSc1nc2ccc(NC(C)=O)cc2s1` was tested. Which survivor count [8] did it give?
**A.** Its survivor count is 6 of 6.

**Q.** For `CCOC(=O)c1c[n+](C2OC(COC(=O)c3ccccc3)C(OC(=O)c3ccccc3)C2OC(=O)c2ccccc2)ccc1N` (configuration not stated), which survivor count [9] is on record?
**A.** The survivor count was 1 of 6.

**Q.** And the survivor count [10]?
**A.** The survivor count was 3 of 6.

**Q.** For `COc1ccc(Cc2c3ccccc3cc[n+]2Cc2ccccc2)cc1OC`, which survivor count [9] is on record?
**A.** Its survivor count is 0 of 6.

**Q.** What about the survivor count [10] of the same compound?
**A.** The survivor count was 0 of 6.
